These are yes or no findings as the source states them, for the method shown. Binding seen in cells or lysates may run through a third protein. Binding calls can cover weak binding; strength is not graded here. For some assays here: Sequences can lack the tags named with a protein.
How the values were obtained:
Experiment in all cases: co-IP; co-transfected COS1 cells; lysis buffer 20 mM Tris pH 8.0, 100 mM NaCl, 0.1% NP-40; anti-Myc antibody and protein-A sepharose, at least 3 h at 4°C; co-precipitated FLAG-tagged protein detected by anti-FLAG blot
[1] = target: FLAG-tagged CT^Glued (carboxyl terminus of p150^Glued, amino acid 938-1254) (human) (UniProt Q14203)
Myc-Sec23A = Myc-Sec23A (UniProt Q15436)
Myc-Sec24D = target: T1, Myc-Sec24D (UniProt O94855)
T1 sequence: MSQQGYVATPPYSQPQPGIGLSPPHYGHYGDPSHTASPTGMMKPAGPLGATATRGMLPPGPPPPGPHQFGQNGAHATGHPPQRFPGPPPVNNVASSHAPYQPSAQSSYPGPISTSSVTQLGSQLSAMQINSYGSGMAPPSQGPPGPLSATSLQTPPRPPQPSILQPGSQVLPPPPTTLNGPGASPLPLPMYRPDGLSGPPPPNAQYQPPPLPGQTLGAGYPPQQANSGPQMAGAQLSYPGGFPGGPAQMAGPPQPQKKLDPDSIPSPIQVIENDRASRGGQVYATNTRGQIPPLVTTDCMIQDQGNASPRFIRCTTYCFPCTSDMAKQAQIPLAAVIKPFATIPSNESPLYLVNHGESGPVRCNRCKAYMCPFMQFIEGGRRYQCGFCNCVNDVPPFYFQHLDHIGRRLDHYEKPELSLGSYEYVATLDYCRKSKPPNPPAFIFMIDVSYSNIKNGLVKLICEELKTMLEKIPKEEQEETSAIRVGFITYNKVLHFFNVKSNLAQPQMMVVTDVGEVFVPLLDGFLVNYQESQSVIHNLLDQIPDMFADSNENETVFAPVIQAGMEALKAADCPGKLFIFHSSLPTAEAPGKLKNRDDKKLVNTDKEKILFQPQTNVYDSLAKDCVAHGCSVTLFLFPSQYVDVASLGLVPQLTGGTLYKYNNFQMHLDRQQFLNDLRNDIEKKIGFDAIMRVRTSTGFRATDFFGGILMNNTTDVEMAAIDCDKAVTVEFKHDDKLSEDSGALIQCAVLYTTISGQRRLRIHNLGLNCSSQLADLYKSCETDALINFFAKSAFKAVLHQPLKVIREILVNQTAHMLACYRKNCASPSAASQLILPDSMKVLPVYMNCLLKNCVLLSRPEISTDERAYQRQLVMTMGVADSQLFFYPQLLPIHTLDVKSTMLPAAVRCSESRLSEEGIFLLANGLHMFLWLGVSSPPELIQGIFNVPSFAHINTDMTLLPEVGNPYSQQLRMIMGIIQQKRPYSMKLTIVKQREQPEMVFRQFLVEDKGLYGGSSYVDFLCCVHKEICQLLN

Amino acid sequences for entries named in this document (tags omitted). A change or cut given only in a name is not applied to a line headed by its entry.
UniProt Q14203: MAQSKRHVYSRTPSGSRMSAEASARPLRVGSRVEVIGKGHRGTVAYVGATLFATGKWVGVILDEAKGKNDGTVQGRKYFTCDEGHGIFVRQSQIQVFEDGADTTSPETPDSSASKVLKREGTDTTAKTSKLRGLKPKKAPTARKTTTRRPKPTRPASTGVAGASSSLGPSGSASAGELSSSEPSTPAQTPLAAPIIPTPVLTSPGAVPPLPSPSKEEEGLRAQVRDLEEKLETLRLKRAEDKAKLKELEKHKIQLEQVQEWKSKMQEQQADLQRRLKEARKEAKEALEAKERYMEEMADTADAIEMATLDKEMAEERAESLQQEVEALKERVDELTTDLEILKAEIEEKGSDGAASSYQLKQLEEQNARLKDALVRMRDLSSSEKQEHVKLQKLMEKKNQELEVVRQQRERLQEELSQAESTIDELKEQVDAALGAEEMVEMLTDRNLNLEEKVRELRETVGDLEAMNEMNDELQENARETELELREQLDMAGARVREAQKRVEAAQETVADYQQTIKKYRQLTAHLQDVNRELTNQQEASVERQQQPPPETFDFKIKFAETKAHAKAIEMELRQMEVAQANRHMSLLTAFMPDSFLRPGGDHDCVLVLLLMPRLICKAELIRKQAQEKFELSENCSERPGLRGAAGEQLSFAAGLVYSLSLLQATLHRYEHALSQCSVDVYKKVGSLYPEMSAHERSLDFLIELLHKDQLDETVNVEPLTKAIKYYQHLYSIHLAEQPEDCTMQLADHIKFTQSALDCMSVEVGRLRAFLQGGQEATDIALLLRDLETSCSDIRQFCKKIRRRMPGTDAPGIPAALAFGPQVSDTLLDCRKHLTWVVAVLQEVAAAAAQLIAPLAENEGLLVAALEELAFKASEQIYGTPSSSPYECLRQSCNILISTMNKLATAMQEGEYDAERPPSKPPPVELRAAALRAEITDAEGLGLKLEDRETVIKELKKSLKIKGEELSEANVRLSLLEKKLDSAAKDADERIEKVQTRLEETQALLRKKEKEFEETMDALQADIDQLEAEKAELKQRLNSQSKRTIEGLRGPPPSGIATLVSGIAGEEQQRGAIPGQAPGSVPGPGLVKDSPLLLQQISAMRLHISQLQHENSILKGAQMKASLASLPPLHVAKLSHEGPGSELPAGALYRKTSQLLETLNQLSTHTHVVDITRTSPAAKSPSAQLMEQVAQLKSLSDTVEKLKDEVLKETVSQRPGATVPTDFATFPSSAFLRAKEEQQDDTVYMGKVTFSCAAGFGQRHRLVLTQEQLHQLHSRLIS
UniProt Q15436: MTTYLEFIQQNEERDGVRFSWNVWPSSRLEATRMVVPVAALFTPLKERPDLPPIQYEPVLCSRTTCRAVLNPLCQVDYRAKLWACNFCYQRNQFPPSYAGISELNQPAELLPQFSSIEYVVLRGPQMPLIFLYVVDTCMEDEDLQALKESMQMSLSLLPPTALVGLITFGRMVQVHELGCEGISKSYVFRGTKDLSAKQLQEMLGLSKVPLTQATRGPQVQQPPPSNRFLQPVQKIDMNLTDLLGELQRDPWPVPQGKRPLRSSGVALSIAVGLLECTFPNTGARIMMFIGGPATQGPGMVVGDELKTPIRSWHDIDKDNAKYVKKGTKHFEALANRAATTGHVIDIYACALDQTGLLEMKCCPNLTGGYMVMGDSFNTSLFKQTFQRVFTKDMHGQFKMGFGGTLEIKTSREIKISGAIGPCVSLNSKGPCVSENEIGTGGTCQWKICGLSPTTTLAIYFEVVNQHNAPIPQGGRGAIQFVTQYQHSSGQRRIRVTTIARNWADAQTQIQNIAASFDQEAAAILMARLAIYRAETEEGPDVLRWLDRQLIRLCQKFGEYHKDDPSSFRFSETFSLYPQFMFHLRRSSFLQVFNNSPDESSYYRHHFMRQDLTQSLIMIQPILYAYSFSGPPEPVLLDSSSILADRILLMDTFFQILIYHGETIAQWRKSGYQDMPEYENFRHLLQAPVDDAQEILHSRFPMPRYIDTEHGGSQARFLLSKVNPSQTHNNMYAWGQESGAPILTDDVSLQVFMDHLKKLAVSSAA
UniProt P48553: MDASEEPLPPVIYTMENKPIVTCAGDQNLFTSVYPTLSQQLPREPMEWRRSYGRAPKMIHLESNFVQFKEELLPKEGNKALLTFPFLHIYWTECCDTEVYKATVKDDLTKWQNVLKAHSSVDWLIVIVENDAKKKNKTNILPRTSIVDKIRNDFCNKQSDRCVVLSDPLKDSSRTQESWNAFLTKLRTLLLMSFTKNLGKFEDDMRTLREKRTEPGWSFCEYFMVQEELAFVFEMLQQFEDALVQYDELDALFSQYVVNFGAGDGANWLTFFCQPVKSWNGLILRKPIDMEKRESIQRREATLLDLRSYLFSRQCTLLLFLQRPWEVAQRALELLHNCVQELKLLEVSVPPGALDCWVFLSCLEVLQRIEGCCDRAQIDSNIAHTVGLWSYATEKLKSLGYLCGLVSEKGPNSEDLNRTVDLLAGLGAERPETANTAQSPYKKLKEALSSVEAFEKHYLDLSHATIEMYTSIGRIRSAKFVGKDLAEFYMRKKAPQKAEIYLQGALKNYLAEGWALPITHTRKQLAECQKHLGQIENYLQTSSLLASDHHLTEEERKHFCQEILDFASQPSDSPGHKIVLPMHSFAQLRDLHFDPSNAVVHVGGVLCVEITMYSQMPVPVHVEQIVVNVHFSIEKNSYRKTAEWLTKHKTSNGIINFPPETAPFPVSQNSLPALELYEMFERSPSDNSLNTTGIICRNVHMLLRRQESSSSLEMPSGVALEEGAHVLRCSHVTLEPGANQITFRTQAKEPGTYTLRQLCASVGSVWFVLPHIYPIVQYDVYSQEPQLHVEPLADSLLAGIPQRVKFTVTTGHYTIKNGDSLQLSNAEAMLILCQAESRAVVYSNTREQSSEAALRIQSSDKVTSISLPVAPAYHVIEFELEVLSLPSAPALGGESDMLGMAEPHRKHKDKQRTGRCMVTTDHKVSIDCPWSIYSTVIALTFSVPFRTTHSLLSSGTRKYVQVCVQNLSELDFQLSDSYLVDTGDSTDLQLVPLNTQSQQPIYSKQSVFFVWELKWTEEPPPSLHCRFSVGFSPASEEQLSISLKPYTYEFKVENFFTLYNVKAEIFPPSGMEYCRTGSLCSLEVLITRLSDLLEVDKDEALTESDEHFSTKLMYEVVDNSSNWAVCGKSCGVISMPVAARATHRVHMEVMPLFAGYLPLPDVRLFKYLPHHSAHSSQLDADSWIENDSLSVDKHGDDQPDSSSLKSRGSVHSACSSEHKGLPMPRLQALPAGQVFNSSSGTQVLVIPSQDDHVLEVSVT
UniProt Q96Q05: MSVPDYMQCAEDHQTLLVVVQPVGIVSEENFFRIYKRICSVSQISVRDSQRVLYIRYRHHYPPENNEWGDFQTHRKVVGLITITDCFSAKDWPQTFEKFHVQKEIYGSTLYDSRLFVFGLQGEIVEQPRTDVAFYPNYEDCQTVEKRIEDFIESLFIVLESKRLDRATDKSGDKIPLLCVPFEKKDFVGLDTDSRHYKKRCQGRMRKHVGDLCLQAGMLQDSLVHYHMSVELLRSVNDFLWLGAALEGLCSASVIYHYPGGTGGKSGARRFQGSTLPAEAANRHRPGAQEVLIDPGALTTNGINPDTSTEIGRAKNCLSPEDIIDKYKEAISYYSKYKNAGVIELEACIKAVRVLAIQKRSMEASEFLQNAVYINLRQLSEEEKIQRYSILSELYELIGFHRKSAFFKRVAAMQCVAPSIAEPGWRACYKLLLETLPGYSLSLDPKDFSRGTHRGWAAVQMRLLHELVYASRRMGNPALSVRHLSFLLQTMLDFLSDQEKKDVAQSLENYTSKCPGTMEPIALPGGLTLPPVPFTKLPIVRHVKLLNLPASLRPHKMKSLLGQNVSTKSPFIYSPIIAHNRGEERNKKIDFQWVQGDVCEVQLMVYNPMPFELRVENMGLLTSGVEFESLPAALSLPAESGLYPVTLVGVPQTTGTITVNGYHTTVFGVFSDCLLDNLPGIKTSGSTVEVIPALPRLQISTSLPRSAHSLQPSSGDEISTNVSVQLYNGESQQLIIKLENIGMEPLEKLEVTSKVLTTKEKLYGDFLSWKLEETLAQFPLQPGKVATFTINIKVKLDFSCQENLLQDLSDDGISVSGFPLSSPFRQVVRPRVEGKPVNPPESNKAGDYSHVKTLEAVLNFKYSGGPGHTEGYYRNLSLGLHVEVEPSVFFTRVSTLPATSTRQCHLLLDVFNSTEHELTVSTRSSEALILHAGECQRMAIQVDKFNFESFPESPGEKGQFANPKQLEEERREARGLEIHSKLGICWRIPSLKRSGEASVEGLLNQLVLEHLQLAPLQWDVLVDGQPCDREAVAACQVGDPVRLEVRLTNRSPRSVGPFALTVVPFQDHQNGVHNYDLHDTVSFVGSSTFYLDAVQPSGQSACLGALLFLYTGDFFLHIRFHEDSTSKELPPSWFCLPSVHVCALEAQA

Myc-tagged TRAPPC10 = Myc-tagged TRAPPC10 (UniProt P48553)
Myc-tagged TRAPPC9 = Myc-tagged TRAPPC9 (UniProt Q96Q05)

binding [1]	Substance	binding (Myc-Sec23A)	binding (Myc-Sec24D)	binding (Myc-tagged TRAPPC10)	binding (Myc-tagged TRAPPC9)
binds	GFP-TRAPPC9 (from UniProt Q96Q05 1-1148)				
	FLAG-tagged CT^Glued (carboxyl terminus of p150^Glued, amino acid 938-1254) (from UniProt Q14203-1) (domain or fragment)	binds	binds	binds weakly	binds

— PMC3261171
